According to patent publication US20020119165A1 (University of Pennsylvania, published 2002):
No constants are given. Whether binding was seen depends on the method and setting. Some binding calls cover weakened binding; strength is not graded here.

Chains of the proteins cited; added tags and fusions are not shown. Residues count along the entry.
UniProt Q92956, residues 39-200: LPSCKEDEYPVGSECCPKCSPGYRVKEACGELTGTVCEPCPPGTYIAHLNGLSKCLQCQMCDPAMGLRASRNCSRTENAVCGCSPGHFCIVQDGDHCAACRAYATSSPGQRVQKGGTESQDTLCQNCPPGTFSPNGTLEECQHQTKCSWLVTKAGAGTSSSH

Target: HveA(200t) (UniProt Q92956)
Assay: ELISA, HveA immobilized, constant LT-alpha with various amounts of gD, AG9 detection

B1: lymphotoxin-alpha (LT-alpha) (ligand, UniProt P01374 35-205, looked up)
chain: LPGVGLTPSAAQTARQHPKMHLAHSTLKPAAHLIGDPSKQNSLLWRANTDRAFLQDGFSLSNNSLLVPTSGIYFVYSQVVFSGKAYSPKATSSPLYLAHEVQLFSSQYPFHVPLLSSQKMVYPGLQEPWLHSMYHGAAFQLTQGDQLSTHTDGIPHLVLSPSTVFFGAFAL
- binding: binds
